According to US7544661 (NORTHWESTERN UNIVERSITY, dated 2009):

Key:
laminin-5 [1] = test: phage display; listed as binding sequence for laminin-5; * denotes the strongest binders
laminin-5 [2] = test: phage display; listed as binding sequence for laminin-5

binding (laminin-5 [1]) | binding (laminin-5 [2]) | Binder
binds |  | RYHPHLH
 | binds | GRYHHYLH
 | binds | LRHKSLH
 | binds | SKLNTKS

No constants are given. Whether binding was seen depends on the method and setting. Binding can be weak; no strength is given.
